For 1 molecule, binding results are on record in patent publication US20250277039A1 (PURDUE RESEARCH FOUNDATION, published 2025).

Results are given in words; binding and its absence hold for the method and conditions named. Some binding calls cover weakened binding; strength is not graded here. Where a sequence is shown, tags or fusion partners need not be part of it.

The target in experiment [1] is T1, His-tagged canine PD-L1 protein (6X His tagged extracellular domain of cPD-L1) (canine) (UniProt E2RKZ5).
T1 sequence: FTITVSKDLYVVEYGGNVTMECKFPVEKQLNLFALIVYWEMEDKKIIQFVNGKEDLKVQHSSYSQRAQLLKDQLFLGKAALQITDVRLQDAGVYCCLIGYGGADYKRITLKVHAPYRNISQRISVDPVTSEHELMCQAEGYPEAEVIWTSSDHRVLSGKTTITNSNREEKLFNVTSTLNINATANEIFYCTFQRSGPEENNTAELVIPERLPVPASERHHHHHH
The experiment is described as follows: PD-L1-His on a Ni-NTA plate, PD-1-hFc detected with anti-human IgG Fc secondary (FIG. 3D).

In experiment [2] the target is T1, His-tagged canine PD-L1 protein (6X His tagged extracellular domain of cPD-L1) (canine). The experiment is described as follows: plate assay: His-tagged PD-L1 on Ni-NTA 96-well plate, PD-1-hFc, HRP anti-human IgG Fc secondary, OD450 given as fold ratio.

B1: mPD-1-hFc protein (Fc fusion, mouse, UniProt Q02242 25-167, looked up)
chain: LEVPNGPWRSLTFYPAWLTVSEGANATFTCSLSNWSEDLMLNWNRLSPSNQTEKQAAFCNGLSQPVQDARFQIIQLPNRHDFHMNILDTRRNDSGIYLCGAISLHPKAKIEESPGAELVVTERILETSTRYPSPSPKPEGRFQ
notes: also called mouse PD-1; not shown: human Fc
With B1, the binding result in experiment [1] and in experiment [2] was “binds” each time.
